Results are given in words; binding and its absence hold for the method and conditions named.

Chains of the proteins cited; added tags and fusions are not shown. Residues count along the entry.
UniProt Q00610, residues 1-364: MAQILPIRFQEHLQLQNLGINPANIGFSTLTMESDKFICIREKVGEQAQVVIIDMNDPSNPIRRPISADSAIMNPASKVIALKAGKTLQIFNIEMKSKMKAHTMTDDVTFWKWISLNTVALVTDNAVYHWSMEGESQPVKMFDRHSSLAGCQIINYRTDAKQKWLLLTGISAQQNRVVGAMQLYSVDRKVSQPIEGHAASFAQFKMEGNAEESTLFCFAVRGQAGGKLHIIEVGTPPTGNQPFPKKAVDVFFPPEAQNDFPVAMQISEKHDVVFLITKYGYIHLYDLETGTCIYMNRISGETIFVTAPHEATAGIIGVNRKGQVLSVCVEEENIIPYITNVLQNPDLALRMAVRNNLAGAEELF

The test has as its target clathrin-N (clathrin heavy chain 1 N-terminal domain, residues 1–364) (UniProt Q00610). The test can be described thus: NMR titration; 50 μM 15N,2H-labelled clathrin-N observed (1H-15N HSQC-TROSY, 900 MHz), unlabelled arrestin2 construct added up to equimolar, no phosphopeptide; 20 mM HEPES, 150 mM NaCl, pH 7.4, 303 K; both purified.

B1: arrestin2^ΔCBL (arrestin2^1-418 with loop K357–D385 replaced by visual arrestin residues E365–N376) (protein)
chain: MGDKGTRVFKKASPNGKLTVYLGKRDFVDHIDLVDPVDGVVLVDPEYLKERRVYVTLTCAFRYGREDLDVLGLTFRKDLFVANVQSFPPAPEDKKPLTRLQERLIKKLGEHAYPFTFEIPPNLPCSVTLQPGPEDTGKACGVDYEVKAFLAENLEEKIHKRNSVRLVIRKVQYAPERPGPQPTAETTRQFLMSDKPLHLEASLDKEIYYHGEPISVNVHVTNNTNKTVKKIKISVRQYADIVLFNTAQYKVPVAMEEADDTVAPSSTFSKVYTLTPFLANNREKRGLALDGKLKHEDTNLASSTLLREGANREILGIIVSYKVKVKLVVSRGGLLGDLASSDVAVELPFTLMHPKPEDPAKESYQDANIVFEDFARQRLKGMKDDKEEEEDGTGSPQLNNR
With B1, the binding result is reported as “no binding (tested: equimolar, 50 μM)”.

The values above are taken from article PMC12815460, “A high-resolution analysis of arrestin2 interactions responsible for CCR5 endocytosis” (eLife, 2026).
